Experimental data taken from paper PMC9463443.
Results are given in words; binding and its absence hold for the method and conditions named. Some results given as binding are weak or reduced against the parent protein; the word gives no strength.

Amino acid sequences for entries named in this document (tags omitted).
UniProt Q9H3R5: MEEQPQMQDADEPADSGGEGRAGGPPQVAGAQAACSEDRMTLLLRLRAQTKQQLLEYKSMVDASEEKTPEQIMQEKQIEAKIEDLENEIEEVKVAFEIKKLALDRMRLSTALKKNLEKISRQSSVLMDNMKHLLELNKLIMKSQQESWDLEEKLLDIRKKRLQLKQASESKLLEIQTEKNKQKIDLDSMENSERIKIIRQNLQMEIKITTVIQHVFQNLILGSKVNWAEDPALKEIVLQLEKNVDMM
UniProt Q9BS16: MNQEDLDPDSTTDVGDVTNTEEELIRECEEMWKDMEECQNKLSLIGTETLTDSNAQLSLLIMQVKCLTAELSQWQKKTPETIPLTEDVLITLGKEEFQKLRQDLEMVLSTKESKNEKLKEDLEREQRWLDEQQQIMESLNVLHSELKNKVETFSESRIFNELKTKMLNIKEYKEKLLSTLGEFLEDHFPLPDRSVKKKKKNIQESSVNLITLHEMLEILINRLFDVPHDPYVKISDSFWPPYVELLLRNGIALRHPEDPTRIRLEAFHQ
UniProt Q96H22: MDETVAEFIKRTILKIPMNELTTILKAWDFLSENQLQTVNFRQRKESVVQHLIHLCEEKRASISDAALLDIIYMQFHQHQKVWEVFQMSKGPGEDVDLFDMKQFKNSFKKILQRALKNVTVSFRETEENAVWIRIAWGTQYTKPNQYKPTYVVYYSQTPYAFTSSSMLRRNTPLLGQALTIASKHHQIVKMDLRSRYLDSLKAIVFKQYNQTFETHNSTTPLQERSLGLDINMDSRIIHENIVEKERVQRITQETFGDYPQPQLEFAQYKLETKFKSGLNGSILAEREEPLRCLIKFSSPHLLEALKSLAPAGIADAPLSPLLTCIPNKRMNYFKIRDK
UniProt Q92674: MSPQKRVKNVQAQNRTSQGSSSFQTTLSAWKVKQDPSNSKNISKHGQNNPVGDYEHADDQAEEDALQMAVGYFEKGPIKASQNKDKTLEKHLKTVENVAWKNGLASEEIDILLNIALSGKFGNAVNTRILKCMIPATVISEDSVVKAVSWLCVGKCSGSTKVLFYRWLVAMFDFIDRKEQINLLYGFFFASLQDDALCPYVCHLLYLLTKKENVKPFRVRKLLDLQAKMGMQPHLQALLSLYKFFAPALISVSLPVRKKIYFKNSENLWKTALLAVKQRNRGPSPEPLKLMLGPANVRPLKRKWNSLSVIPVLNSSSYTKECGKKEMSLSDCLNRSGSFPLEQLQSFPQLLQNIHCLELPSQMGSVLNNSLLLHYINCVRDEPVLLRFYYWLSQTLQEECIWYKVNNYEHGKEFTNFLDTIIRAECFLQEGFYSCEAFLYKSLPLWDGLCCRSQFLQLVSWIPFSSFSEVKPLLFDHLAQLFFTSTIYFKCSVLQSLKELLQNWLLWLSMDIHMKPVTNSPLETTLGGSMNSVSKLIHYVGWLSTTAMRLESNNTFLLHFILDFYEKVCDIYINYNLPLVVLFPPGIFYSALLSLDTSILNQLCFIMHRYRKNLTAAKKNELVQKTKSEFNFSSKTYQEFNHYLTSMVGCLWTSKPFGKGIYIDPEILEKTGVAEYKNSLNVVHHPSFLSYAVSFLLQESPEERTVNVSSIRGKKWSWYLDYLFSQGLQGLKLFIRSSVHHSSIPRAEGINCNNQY
UniProt Q71F23: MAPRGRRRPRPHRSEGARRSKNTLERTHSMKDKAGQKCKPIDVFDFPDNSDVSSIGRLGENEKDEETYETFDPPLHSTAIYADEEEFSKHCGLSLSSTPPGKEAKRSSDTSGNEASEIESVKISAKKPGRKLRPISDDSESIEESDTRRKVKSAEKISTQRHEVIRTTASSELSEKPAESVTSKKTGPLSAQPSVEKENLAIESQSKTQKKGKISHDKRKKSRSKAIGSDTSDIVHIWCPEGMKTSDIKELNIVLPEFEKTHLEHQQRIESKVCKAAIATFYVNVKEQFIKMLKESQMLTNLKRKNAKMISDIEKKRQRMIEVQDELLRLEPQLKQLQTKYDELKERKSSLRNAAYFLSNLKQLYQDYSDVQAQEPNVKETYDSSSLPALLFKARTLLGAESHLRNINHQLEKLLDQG
UniProt Q96BT3: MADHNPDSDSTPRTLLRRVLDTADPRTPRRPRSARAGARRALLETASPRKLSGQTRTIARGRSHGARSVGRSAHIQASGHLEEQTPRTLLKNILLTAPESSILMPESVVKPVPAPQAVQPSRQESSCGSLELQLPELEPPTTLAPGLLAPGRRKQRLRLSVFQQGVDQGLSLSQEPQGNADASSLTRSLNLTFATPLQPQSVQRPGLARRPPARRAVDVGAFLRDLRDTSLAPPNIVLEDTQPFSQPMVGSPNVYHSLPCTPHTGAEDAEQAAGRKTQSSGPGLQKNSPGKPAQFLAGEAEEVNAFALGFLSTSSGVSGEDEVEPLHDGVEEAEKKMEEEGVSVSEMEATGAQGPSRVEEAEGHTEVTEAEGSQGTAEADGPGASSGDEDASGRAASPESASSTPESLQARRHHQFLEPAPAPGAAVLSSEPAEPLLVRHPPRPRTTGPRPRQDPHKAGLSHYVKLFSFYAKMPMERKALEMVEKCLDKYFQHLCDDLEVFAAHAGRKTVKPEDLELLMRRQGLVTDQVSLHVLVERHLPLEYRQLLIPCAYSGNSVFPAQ
UniProt Q8N0S6: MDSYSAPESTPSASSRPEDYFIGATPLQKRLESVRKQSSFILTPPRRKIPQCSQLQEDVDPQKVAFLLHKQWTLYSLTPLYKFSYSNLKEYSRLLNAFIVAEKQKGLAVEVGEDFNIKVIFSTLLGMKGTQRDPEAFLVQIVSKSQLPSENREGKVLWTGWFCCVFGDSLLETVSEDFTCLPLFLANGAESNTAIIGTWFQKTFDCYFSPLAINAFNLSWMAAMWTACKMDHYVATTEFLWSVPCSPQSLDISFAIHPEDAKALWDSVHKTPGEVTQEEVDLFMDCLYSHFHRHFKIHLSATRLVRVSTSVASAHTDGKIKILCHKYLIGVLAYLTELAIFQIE
UniProt Q9NSP4: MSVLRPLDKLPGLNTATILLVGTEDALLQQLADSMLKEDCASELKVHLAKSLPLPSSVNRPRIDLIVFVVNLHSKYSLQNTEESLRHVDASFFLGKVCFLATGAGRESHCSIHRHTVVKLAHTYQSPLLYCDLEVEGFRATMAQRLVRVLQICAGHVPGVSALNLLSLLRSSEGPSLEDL
UniProt Q7L2Z9: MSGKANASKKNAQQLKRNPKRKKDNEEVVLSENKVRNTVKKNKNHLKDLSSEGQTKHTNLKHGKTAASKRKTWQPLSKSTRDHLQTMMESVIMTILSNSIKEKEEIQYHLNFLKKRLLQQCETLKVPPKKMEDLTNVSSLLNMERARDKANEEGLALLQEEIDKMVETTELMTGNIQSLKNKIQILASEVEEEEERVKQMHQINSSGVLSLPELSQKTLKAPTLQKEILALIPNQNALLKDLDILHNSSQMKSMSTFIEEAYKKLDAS
UniProt Q5EE01: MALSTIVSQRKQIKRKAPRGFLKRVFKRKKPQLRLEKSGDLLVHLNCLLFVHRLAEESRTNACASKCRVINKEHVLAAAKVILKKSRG

Columns and labels:
Experiment in all cases: cryo-EM structure; CCAN reconstituted from purified sub-complexes with CENP-A nucleosome (147 bp Widom 601), purified on Superose 6 in 20 mM HEPES-Na pH 7.5, 300 mM NaCl, 0.5 mM TCEP, cross-linked with 5 mM BS3; 3.3 Å map; no particles with the nucleosome were seen; both purified
CENP-H (human) = CENP-H (human) (UniProt Q9H3R5)
CENP-K (human) = CENP-K (human) (UniProt Q9BS16)
CENP-N (human) = CENP-N (human) (UniProt Q96H22)
CENP-I (human) = CENP-I (human) (UniProt Q92674)
CENP-U (human) = CENP-U (human) (UniProt Q71F23)
CENP-T (human) = CENP-T (human) (UniProt Q96BT3)

CENP-I (from UniProt Q92674 1-756)
binding (CENP-H (human)): binds
binding (CENP-K (human)): binds

CENP-L (from UniProt Q8N0S6 1-344) (other; other documents disagree on this pair)
binding (CENP-N (human)): binds

CENP-M (from UniProt Q9NSP4 1-180)
binding (CENP-I (human)): binds
binding (CENP-K (human)): binds

CENP-Q (from UniProt Q7L2Z9 1-268)
binding (CENP-U (human)): binds

CENP-W (from UniProt Q5EE01 1-88)
binding (CENP-T (human)): binds
